Consider 2 molecules from paper PMC10141581.

Sequences of proteins named here, by UniProt entry; tags and fusion partners are left off. Residues count along the entry.
UniProt P63104, residues 1-230: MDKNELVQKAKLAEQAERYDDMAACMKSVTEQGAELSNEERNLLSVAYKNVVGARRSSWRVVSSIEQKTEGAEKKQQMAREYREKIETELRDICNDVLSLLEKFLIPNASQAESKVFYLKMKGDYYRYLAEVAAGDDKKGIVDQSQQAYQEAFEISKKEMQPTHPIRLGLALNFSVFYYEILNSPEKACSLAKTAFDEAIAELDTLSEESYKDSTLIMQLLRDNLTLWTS

This experiment deals with 14-3-3ζ WT (human) (UniProt P63104). As to the kind of experiment: affinity purification with mass spectrometry; 14-3-3ζ (WT, pSer58, nhpSer58) covalently coupled to NHS-Sepharose, incubated with HEK293T lysate 2 h at 25 °C (50 mM Tris pH 7.5, 150 mM NaCl, 50 nM Calyculin A), washed with 350 mM NaCl, eluted with 6 M guanidine-HCl; label-free quantitative MS; only the target purified.

These are yes or no findings as the source states them, for the method shown. In cells and extracts the contact can be indirect. A yes stands for co-enrichment or nearness to the bait. Other partners may have been found.

B1: TRIM11 (protein, UniProt Q96F44 1-468)
chain: MAAPDLSTNLQEEATCAICLDYFTDPVMTDCGHNFCRECIRRCWGQPEGPYACPECRELSPQRNLRPNRPLAKMAEMARRLHPPSPVPQGVCPAHREPLAAFCGDELRLLCAACERSGEHWAHRVRPLQDAAEDLKAKLEKSLEHLRKQMQDALLFQAQADETCVLWQKMVESQRQNVLGEFERLRRLLAEEEQQLLQRLEEEELEVLPRLREGAAHLGQQSAHLAELIAELEGRCQLPALGLLQDIKDALRRVQDVKLQPPEVVPMELRTVCRVPGLVETLRRFRGDVTLDPDTANPELILSEDRRSVQRGDLRQALPDSPERFDPGPCVLGQERFTSGRHYWEVEVGDRTSWALGVCRENVNRKEKGELSAGNGFWILVFLGSYYNSSERALAPLRDPPRRVGIFLDYEAGHLSFYSATDGSLLFIFPEIPFSGTLRPLFSPLSSSPTPMTICRPKGGSGDTLAPQ
Turning to B1, the binding result is “binds”.

B2: Bcl2-associated agonist of cell death (BAD) (protein, UniProt Q92934 1-168)
chain: MFQIPEFEPSEQEDSSSAERGLGPSPAGDGPSGSGKHHRQAPGLLWDASHQQEQPTSSSHHGGAGAVEIRSRHSSYPAGTEDDEGMGEEPSPFRGRSRSAPPNLWAAQRYGRELRRMSDEFVDSFKKGLPRPKSAGTATQMRQSSSWTRVFQSWWDRNLGRGSSAPSQ
With B2, the binding result is listed as “binds”.
